Patent publication US20110212084A1
Results are given in words; binding and its absence hold for the method and conditions named. Some results given as binding are weak or reduced against the parent protein; the word gives no strength.

Target: cynomolgus IgE (recombinant chimaeric D12 variable region / cynomolgus IgE constant region) (cynomolgus monkey (constant region))
Assay: DELFIA epitope competition; unlabelled cynomolgus IgE competes with biotinylated human IgE for immobilised IgG

binding: binds
B1: Antibody 33GL (germlined IgG) (antibody, V domains shown)
VH: EVQLLESGGGLVQPGGSLSLSCAAPGFTFSSYAMSWVRQAPGKGLEWVSAISGGSGGRTYYADSVKGRFTISKDNSKNTLYLQMNSLRAEDTAVYYCARHIAVAGTRGFDYWGRGTLVTVSS
VL: SYELTQPPSVSVSPGQTASITCSGDKLGDTYASWYQQKPGLSPALVIYQDDKRPSGIPERFSGSNSGNTATLTISGTQAMDEADYYCLAWDTRTSGAVFGGGTKLTVL
